# PubChem BioAssay AID1159595 | NIAID, 2016
# Aim: 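Which toll-like receptor pathway genes macrophages need for Pam3CSK4-induced Tnf promoter activity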 (primary screen)
# System: mouse RAW264.7 macrophage reporter cells
# Reagent: single siRNA against mouse genes
# Duration: assayed 48 to 72 hours after siRNA transfection; ligand applied for 16 hours
# Treatment: Pam3CSK4 (TLR2 ligand) for 16 hours before fixation; dose not given
# Measurement: 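High-content imaging of Tnf promoter-driven nuclear mCherry in cells given Pam3CSK4 for 16 h, 48–72 h after transfection; value is the replicate mean of plate-normalised background-corrected robust z-scores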
# Direction: Tnf reporter z-score (replicate mean): higher = stronger Tnf promoter reporter signal than negative control wells
# Hit rule: 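An siRNA is active when its replicate-mean z-score is -1.5 or lower or 1.5 or higher (activity score at least 50); activity graded at absolute z 1, 1.5, 2 and 2.5; calls apply to single siRNAs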
# Calls: active = strong change (up or down); inactive = little change
# The whole screen tested 756 reagents; below is an unselected part. In the full data, 115 (15%) are marked active. 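Active calls cover both lowered and raised reporter signal; each score refers to one siRNA rather than a whole gene.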 Entries without a mark were called inactive. The numbers tell different reagents against one gene apart. No sequences are given here. Not given: the amount of reagent.
gene symbol,reagent no.,Tnf reporter z-score (replicate mean)
Lbp (lipopolysaccharide binding protein),1,0.211
Lbp (lipopolysaccharide binding protein),2,1.46
Lbp (lipopolysaccharide binding protein),3,0.268
Lbp (lipopolysaccharide binding protein),4,-2.6 (active)
Lbp (lipopolysaccharide binding protein),5,0.631
Lbp (lipopolysaccharide binding protein),6,0.218
Egr1 (early growth response 1),1,-0.78
Egr1 (early growth response 1),2,-1.99 (active)
Egr1 (early growth response 1),3,-1.34
Egr1 (early growth response 1),4,0.0387
Egr1 (early growth response 1),5,-1.32
Egr1 (early growth response 1),6,-0.294
Tab1 (TGF-beta activated kinase 1/MAP3K7 binding protein 1),1,0.386
Tab1 (TGF-beta activated kinase 1/MAP3K7 binding protein 1),2,-1.5
Tab1 (TGF-beta activated kinase 1/MAP3K7 binding protein 1),3,-0.431
Tab1 (TGF-beta activated kinase 1/MAP3K7 binding protein 1),4,-1.11
Tab1 (TGF-beta activated kinase 1/MAP3K7 binding protein 1),5,1.42
Tab1 (TGF-beta activated kinase 1/MAP3K7 binding protein 1),6,-0.845
Tlr7 (toll-like receptor 7),1,-1.12
Tlr7 (toll-like receptor 7),2,-1.33
Tlr7 (toll-like receptor 7),3,-0.522
Tlr7 (toll-like receptor 7),4,0.355
Tlr7 (toll-like receptor 7),5,1.05
Tlr7 (toll-like receptor 7),6,-0.107
Map3k8 (mitogen-activated protein kinase kinase kinase 8),1,0.02
Map3k8 (mitogen-activated protein kinase kinase kinase 8),2,0.331
Map3k8 (mitogen-activated protein kinase kinase kinase 8),3,-0.876
Map3k8 (mitogen-activated protein kinase kinase kinase 8),4,0.392
Map3k8 (mitogen-activated protein kinase kinase kinase 8),5,-0.369
Map3k8 (mitogen-activated protein kinase kinase kinase 8),6,-0.366
Myd88 (myeloid differentiation primary response gene 88),1,-1.39
Myd88 (myeloid differentiation primary response gene 88),2,-1.89 (active)
Myd88 (myeloid differentiation primary response gene 88),3,-1.53 (active)
Myd88 (myeloid differentiation primary response gene 88),4,-1.47
Myd88 (myeloid differentiation primary response gene 88),5,-1.39
Myd88 (myeloid differentiation primary response gene 88),6,-0.386
"Ets1 (Ets proto-oncogene 1, transcription factor)",1,-0.567
"Ets1 (Ets proto-oncogene 1, transcription factor)",2,1.56 (active)
"Ets1 (Ets proto-oncogene 1, transcription factor)",3,-0.577
"Ets1 (Ets proto-oncogene 1, transcription factor)",4,1.04
"Ets1 (Ets proto-oncogene 1, transcription factor)",5,-0.486
"Ets1 (Ets proto-oncogene 1, transcription factor)",6,-1.4
Stat1 (signal transducer and activator of transcription 1),1,0.402
Stat1 (signal transducer and activator of transcription 1),2,0.376
Stat1 (signal transducer and activator of transcription 1),3,-0.764
Stat1 (signal transducer and activator of transcription 1),4,-0.133
Stat1 (signal transducer and activator of transcription 1),5,-0.886
Stat1 (signal transducer and activator of transcription 1),6,-1.95 (active)
Nfkbie,1,-1.07
Nfkbie,2,-0.428
Nfkbie,3,0.157
Nfkbie,4,-0.167
Nfkbie,5,-0.0646
Nfkbie,6,0.364
Tlr1 (toll-like receptor 1),1,0.302
Tlr1 (toll-like receptor 1),2,0.318
Tlr1 (toll-like receptor 1),3,0.132
Tlr1 (toll-like receptor 1),4,0.498
Tlr1 (toll-like receptor 1),5,0.172
Tlr1 (toll-like receptor 1),6,-0.149
Il1rl1 (interleukin 1 receptor-like 1),1,1.03
Il1rl1 (interleukin 1 receptor-like 1),2,-1.04
Il1rl1 (interleukin 1 receptor-like 1),3,-0.961
Il1rl1 (interleukin 1 receptor-like 1),4,-0.549
Il1rl1 (interleukin 1 receptor-like 1),5,-1.14
Il1rl1 (interleukin 1 receptor-like 1),6,-0.0693
Il1b (interleukin 1 beta),1,0.179
Il1b (interleukin 1 beta),2,-0.642
Il1b (interleukin 1 beta),3,-0.0071
Il1b (interleukin 1 beta),4,0.245
Il1b (interleukin 1 beta),5,0.132
Il1b (interleukin 1 beta),6,-0.263
Ripk3 (receptor-interacting serine-threonine kinase 3),1,-0.514
Ripk3 (receptor-interacting serine-threonine kinase 3),2,0.0599
Ripk3 (receptor-interacting serine-threonine kinase 3),3,0.0872
Ripk3 (receptor-interacting serine-threonine kinase 3),4,0.0985
Ripk3 (receptor-interacting serine-threonine kinase 3),5,1.62 (active)
Ripk3 (receptor-interacting serine-threonine kinase 3),6,-0.739
"Tnfaip3 (tumor necrosis factor, alpha-induced protein 3)",1,1.39
"Tnfaip3 (tumor necrosis factor, alpha-induced protein 3)",2,0.2
"Tnfaip3 (tumor necrosis factor, alpha-induced protein 3)",3,-0.242
"Tnfaip3 (tumor necrosis factor, alpha-induced protein 3)",4,0.698
"Tnfaip3 (tumor necrosis factor, alpha-induced protein 3)",5,0.793
"Tnfaip3 (tumor necrosis factor, alpha-induced protein 3)",6,0.896
Map2k4 (mitogen-activated protein kinase kinase 4),1,0.599
Map2k4 (mitogen-activated protein kinase kinase 4),2,-0.51
Map2k4 (mitogen-activated protein kinase kinase 4),3,0.069
Map2k4 (mitogen-activated protein kinase kinase 4),4,0.537
Map2k4 (mitogen-activated protein kinase kinase 4),5,-1.06
Map2k4 (mitogen-activated protein kinase kinase 4),6,-1.22
Ikbke (inhibitor of kappaB kinase epsilon),1,-1.73 (active)
Ikbke (inhibitor of kappaB kinase epsilon),2,-1.28
Ikbke (inhibitor of kappaB kinase epsilon),3,-0.701
Ikbke (inhibitor of kappaB kinase epsilon),4,-0.331
Ikbke (inhibitor of kappaB kinase epsilon),5,-0.498
Ikbke (inhibitor of kappaB kinase epsilon),6,-0.608
Mapk14 (mitogen-activated protein kinase 14),1,-0.697
Mapk14 (mitogen-activated protein kinase 14),2,0.413
Mapk14 (mitogen-activated protein kinase 14),3,-0.14
Mapk14 (mitogen-activated protein kinase 14),4,-0.637
Mapk14 (mitogen-activated protein kinase 14),5,-1.24
Mapk14 (mitogen-activated protein kinase 14),6,-1.18
Egr2 (early growth response 2),1,-0.496
Egr2 (early growth response 2),2,-1.6 (active)
Egr2 (early growth response 2),3,-1.35
Egr2 (early growth response 2),4,-3.05 (active)
Egr2 (early growth response 2),5,-1.48
Egr2 (early growth response 2),6,-0.332
Il6 (interleukin 6),1,-0.676
Il6 (interleukin 6),2,-0.811
Il6 (interleukin 6),3,0.569
Il6 (interleukin 6),4,-0.0372
Il6 (interleukin 6),5,0.507
Il6 (interleukin 6),6,0.0893

Already shown: 13 of the entries above.
gene symbol,reagent no.,Tnf reporter z-score (replicate mean)
Tlr7 (toll-like receptor 7),1,-1.12
Tlr7 (toll-like receptor 7),2,-1.33
Tlr7 (toll-like receptor 7),3,-0.522
Tlr7 (toll-like receptor 7),4,0.355
Tlr7 (toll-like receptor 7),5,1.05
Tlr7 (toll-like receptor 7),6,-0.107
Map3k8 (mitogen-activated protein kinase kinase kinase 8),1,0.02
Map3k8 (mitogen-activated protein kinase kinase kinase 8),2,0.331
Map3k8 (mitogen-activated protein kinase kinase kinase 8),3,-0.876
Map3k8 (mitogen-activated protein kinase kinase kinase 8),4,0.392
Map3k8 (mitogen-activated protein kinase kinase kinase 8),5,-0.369
Map3k8 (mitogen-activated protein kinase kinase kinase 8),6,-0.366
Myd88 (myeloid differentiation primary response gene 88),1,-1.39
